Measured values published in publication PMC11402785, “Structural basis for activity switching in polymerases determining the fate of let-7 pre-miRNAs” (Nature Structural & Molecular Biology, 2024).
No constants are given. Whether binding was seen depends on the method and setting. Some results given as binding are weak or reduced against the parent protein; the word gives no strength.

What was measured:
[1] = target: T1, human terminal uridylyltransferase 4 (TUT4), truncated (residues 254-1315) (human) (UniProt Q5TAX3); test: cryo-EM structure; ternary complexes of TUT7 or TUT4 with pre-let-7g RNA and LIN28A mixed at a molar ratio of 1:1.5:2, overnight on ice with 0.5 mM UTPalphaS, 2 mM DTT, 2 mM CaCl2, then SEC in 20 mM HEPES pH 7.8, 100 mM NaCl; both purified
T1 sequence: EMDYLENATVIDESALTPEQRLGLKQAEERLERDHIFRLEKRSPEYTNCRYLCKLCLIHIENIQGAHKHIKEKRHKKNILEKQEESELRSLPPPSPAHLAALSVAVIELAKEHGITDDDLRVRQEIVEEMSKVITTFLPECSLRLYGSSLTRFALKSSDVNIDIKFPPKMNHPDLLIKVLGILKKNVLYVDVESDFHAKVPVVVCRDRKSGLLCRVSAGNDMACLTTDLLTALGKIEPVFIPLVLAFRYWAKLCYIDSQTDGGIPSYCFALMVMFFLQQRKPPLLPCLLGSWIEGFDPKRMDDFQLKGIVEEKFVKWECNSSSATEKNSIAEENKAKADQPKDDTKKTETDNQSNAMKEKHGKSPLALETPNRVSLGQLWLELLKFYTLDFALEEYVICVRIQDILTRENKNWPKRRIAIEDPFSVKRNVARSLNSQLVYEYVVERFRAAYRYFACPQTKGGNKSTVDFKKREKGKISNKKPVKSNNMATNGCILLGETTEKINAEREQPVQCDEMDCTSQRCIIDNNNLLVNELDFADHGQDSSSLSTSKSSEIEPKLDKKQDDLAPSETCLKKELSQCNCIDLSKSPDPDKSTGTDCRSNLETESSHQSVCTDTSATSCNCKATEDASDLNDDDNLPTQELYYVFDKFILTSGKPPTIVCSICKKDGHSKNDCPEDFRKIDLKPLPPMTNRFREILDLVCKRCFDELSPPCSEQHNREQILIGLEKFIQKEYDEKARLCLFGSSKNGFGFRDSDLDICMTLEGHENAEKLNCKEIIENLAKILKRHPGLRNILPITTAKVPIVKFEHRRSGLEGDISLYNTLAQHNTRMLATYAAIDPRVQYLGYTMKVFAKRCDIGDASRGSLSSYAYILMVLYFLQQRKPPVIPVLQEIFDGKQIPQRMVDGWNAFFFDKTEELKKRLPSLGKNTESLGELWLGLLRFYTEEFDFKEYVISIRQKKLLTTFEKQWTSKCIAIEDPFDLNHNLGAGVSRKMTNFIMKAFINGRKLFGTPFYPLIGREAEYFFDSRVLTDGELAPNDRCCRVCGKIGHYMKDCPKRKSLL

[2] = target: T1, human terminal uridylyltransferase 4 (TUT4), truncated (residues 254-1315) (human); test: SEC; TUT4/pre-let-7g/LIN28A assembled with the components added in different orders (pre-let-7 + LIN28A first, or TUT4 + pre-let-7 first), 4 h on ice each step, then SEC; checked by 2D class averages; both purified
[3] = target: T1, human terminal uridylyltransferase 4 (TUT4), truncated (residues 254-1315) (human); test: native gel or EMSA; 3' CY labelled pre-let-7g with TUT4 (wild type or mutants) and LIN28A; 20 mM HEPES pH 7.8, 100 mM NaCl, 2 mM CaCl2, 50 uM ZnCl2, 5% glycerol, 5 mM DTT, 0.5 mM UTP, on ice 30 min; 3-12% native gel; the labelled RNA is imaged; both purified

Measured: binding

B1: human LIN28A (natural protein)
chain: MGSVSNQQFAGGCAKAAEEAPEEAPEDAARAADEPQLLHGAGICKWFNVRMGFGFLSMTARAGVALDPPVDVFVHQSKLHMEGFRSLKEGEAVEFTFKKSAKGLESIRVTGPGGVFCIGSERRPKGKSMQKRRSKGDRCYNCGGLDHHAKECKLPPQPKKCHFCQSISHMVASCPLKAQQGPSAQGKPTYFREEEEEIHSPTLLPEAQN
notes: LIN28A, human, synthesised gene; Expressed as an N-terminal His6-GST fusion; removal of the tag is not described; The phrase 'full-length wild-type human TUT7 and human LIN28A' may or may not mean that LIN28A was full length; Only the ZK domain is resolved in the maps
binds: [1] | [2] | [3]
